Holding throughout (conditions): 10 µM; pre-incubation: 30-90 min
Experiment [1] concerns Danio rerio larvae (5 dpf, TLF). As to the kind of experiment: OMR-Perf (SSMD vs DMSO vehicle); higher = higher than vehicle (e.g. higher dark-flash O-bend response probability, or better optomotor performance).
Experiment [2] has the same test system. As to the kind of experiment: Prob-Test (SSMD vs DMSO vehicle); higher = higher than vehicle (e.g. higher dark-flash O-bend response probability, or better optomotor performance).
The test system is the same in experiment [3]. As to the kind of experiment: Prob-Naive (SSMD vs DMSO vehicle); higher = higher than vehicle (e.g. higher dark-flash O-bend response probability, or better optomotor performance).
The test system is the same in experiment [4]. As to the kind of experiment: Prob-Train (SSMD vs DMSO vehicle); higher = higher than vehicle (e.g. higher dark-flash O-bend response probability, or better optomotor performance).

The other results are listed elsewhere or left out. Single values are uncertain here, since repeats match poorly.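 Free-swimming zebrafish larvae were scored for O-bend response probability to dark flashes (naive: first five; training: remaining flashes of four 60-flash blocks; test: later 60-flash block) and for turning toward alternating leftward/rightward LED motion (OMR). Six treated larvae were compared with sixty 0.1% DMSO controls; |SSMD|≥2 defined a hit.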

For the molecule `C[N+]1(C)[C@@H]2C[C@H](OC(=O)[C@H](CO)c3ccccc3)C[C@H]1[C@@H]1O[C@@H]12.[Br-]` [Methscopolamine], the OMR-Perf in experiment [1] was -0.0441. The same molecule yielded a Prob-Test in experiment [2] of 0.106. Moreover, in experiment [3], the Prob-Naive was -0.0215. Moreover, the Prob-Train in experiment [4] is -0.396.

The molecule `COc1cc(-n2c(S)nc3ccccc3c2=O)c(Cl)cc1Cl` [Mdivi-1] came in with an OMR-Perf in experiment [1] of -0.692. The Prob-Test in experiment [2] was -1.01. In experiment [3], the Prob-Naive was -1.01. For the same molecule, the Prob-Train in experiment [4] is -2.17.

As for `O=[N+]([O-])c1ccc([As](=O)(O)O)cc1` [Nitarsone], the OMR-Perf in experiment [1] was -0.142. In experiment [2], this molecule gave a Prob-Test of -0.277. Besides, the Prob-Naive in experiment [3] is -0.0762. This molecule also gave a Prob-Train in experiment [4] of -0.935.

In turn, `CC(C)NCC(O)c1ccccc1Cl.Cl` (stereo not given) [Clorprenaline HCl] displayed an OMR-Perf in experiment [1] of 0.146. In experiment [2], this molecule displayed a Prob-Test of 0.216. The molecule further showed a Prob-Naive in experiment [3] of -0.435. Besides, the Prob-Train in experiment [4] worked out at 0.234.

In experiment [1], `CN1CCc2cc3c(cc2[C@H]1[C@@H]1OC(=O)c2c1ccc1c2OCO1)OCO3` [(+)-Bicuculline] showed an OMR-Perf of -0.759. Further, the Prob-Test in experiment [2] was -0.229. The Prob-Naive in experiment [3] is -0.199. The molecule also returned a Prob-Train in experiment [4] of -0.203.

Turning to `CCc1c(C(=O)C(N)=O)c2c(OCC(=O)O)cccc2n1Cc1ccccc1`, the OMR-Perf in experiment [1] is -0.604. The same molecule came in with a Prob-Test in experiment [2] of -0.0785. In experiment [3], the Prob-Naive was 0. In experiment [4], the Prob-Train is -0.167.

Take `CCC1(C)CC(=O)NC(=O)C1` [Bemegride]: in experiment [1], the OMR-Perf was -0.0161. Further, the Prob-Test in experiment [2] was -0.13. Also, the Prob-Naive in experiment [3] is -0.45. The Prob-Train in experiment [4] came to 0.152.

`CN(C)C(=O)Oc1cccc([N+](C)(C)C)c1.[Br-]` [Neostigmine bromide (Prostigmin)] displayed an OMR-Perf in experiment [1] of -0.0209. The molecule further yielded a Prob-Test in experiment [2] of -0.439. In experiment [3], the Prob-Naive is -0.337. The Prob-Train in experiment [4] was -0.128.

As to `COc1ccc(OC)c(C(O)C(C)N)c1.Cl` (stereo not given) [Methoxamine HCl], the OMR-Perf in experiment [1] is -0.499. Also, the Prob-Test in experiment [2] is -0.0249. Further, the Prob-Naive in experiment [3] is -0.119. The same molecule came in with a Prob-Train in experiment [4] of -0.147.

`O=c1ccc2cc(O[C@@H]3O[C@H](CO)[C@@H](O)[C@H](O)[C@@H]3O)c(O)cc2o1` [Esculin] returned an OMR-Perf in experiment [1] of -0.553. Moreover, the Prob-Test in experiment [2] amounted to 0.208. This molecule also gave a Prob-Naive in experiment [3] of 0.517. In addition, the Prob-Train in experiment [4] worked out at 0.465.
